The experiment deals with PHB2-StrepII-FLAG (human) (UniProt Q99623). In words: affinity purification with mass spectrometry; tandem purification of PHB2-StrepII-FLAG complexes (Strep-Tactin Superflow resin, then anti-FLAG M2 affinity gel) from HeLa Parkin cells treated with DMSO or OA for 4 h; 25 mM Hepes pH 7.4, 150 mM NaCl, 1 mM EDTA; label-free mass spectrometry.

Chains of the proteins cited; added tags and fusions are not shown.
UniProt Q99623: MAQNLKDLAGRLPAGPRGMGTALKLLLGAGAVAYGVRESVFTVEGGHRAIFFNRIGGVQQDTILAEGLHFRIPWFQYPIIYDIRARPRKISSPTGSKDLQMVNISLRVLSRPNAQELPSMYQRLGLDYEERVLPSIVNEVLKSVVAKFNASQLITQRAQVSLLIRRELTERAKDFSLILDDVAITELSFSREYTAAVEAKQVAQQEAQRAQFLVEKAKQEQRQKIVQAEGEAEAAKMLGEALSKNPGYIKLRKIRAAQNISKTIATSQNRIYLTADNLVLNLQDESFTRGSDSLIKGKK
UniProt O60260: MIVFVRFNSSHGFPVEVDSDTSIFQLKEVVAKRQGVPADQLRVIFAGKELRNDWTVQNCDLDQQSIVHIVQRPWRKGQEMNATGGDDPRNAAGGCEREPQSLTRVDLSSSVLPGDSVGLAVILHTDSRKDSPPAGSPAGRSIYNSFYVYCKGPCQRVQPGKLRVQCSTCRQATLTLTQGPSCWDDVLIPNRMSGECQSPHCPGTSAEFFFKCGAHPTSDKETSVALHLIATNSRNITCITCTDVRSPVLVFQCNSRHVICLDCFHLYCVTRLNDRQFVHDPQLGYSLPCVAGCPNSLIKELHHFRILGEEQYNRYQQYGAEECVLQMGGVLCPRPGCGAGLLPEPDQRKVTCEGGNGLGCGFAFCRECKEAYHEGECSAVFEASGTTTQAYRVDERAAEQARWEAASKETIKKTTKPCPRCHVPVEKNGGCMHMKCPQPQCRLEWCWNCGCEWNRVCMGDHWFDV
UniProt Q8IZ07: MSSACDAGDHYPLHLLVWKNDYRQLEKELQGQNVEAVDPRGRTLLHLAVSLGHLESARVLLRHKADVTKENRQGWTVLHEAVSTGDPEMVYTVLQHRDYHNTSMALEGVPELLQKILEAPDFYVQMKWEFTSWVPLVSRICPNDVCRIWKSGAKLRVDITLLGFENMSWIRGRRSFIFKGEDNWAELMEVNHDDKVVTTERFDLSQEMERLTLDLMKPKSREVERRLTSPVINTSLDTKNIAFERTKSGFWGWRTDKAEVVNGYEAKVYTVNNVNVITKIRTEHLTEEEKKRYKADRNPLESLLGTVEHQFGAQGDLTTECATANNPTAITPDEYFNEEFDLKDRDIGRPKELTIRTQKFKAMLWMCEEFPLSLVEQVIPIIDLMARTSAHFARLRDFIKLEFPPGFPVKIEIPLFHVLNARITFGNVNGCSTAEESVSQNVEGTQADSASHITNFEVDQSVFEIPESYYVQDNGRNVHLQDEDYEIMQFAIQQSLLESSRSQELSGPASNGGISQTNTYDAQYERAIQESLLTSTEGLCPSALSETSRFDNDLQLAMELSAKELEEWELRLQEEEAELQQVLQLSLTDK

No constants are given. Whether binding was seen depends on the method and setting. Binding seen in cells or lysates may run through a third protein. Here binding means that the protein was enriched with, or labelled near, the bait; the list need not be complete.

In the case of “E3 ubiquitin-protein ligase Parkin (from UniProt O60260 1-465) (enzyme)”, the binding entry was “binds”.

For the substance “ankyrin repeat domain-containing protein 13 A (ANKRD13A), endogenous (from UniProt Q8IZ07 1-590)”, the binding result is “binds”.

(Values after article PMC12685520.)
